Measurements taken from the supplement of paper PMC10849652.
This is one part of the list.

By UniProt entry, the sequences of proteins in these tests, tags left out. Where a name states a change or a piece, a line headed by the entry shows the natural chain unless it says otherwise.
UniProt Q9BXS6: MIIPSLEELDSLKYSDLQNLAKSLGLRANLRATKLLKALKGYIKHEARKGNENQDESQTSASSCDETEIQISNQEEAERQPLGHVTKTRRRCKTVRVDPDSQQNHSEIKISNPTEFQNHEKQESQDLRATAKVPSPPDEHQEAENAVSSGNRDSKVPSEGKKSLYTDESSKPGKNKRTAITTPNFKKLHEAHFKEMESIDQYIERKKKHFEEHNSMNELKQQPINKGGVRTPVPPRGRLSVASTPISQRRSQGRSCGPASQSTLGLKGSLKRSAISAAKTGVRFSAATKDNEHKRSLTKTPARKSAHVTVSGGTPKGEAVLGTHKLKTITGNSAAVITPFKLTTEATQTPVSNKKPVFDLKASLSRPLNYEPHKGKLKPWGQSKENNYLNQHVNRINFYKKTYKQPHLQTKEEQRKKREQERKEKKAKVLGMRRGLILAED
UniProt Q13438: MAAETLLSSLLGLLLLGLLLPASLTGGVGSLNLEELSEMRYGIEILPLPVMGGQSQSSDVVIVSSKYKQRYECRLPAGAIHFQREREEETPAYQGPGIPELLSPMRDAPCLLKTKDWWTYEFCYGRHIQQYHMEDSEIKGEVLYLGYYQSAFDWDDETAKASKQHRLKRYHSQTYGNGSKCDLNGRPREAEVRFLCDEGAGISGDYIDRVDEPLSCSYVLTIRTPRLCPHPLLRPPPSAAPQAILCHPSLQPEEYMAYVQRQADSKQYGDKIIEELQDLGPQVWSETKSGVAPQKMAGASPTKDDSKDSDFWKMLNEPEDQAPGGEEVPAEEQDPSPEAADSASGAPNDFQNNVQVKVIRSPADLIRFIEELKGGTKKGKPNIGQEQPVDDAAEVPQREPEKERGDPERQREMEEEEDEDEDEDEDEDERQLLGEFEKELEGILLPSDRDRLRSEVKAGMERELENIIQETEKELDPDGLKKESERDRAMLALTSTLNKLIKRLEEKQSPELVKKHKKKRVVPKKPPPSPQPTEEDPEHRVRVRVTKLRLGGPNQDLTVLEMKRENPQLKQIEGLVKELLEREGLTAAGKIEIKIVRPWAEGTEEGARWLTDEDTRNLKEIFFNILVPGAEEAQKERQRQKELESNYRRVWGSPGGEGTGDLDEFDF
UniProt Q86WC4: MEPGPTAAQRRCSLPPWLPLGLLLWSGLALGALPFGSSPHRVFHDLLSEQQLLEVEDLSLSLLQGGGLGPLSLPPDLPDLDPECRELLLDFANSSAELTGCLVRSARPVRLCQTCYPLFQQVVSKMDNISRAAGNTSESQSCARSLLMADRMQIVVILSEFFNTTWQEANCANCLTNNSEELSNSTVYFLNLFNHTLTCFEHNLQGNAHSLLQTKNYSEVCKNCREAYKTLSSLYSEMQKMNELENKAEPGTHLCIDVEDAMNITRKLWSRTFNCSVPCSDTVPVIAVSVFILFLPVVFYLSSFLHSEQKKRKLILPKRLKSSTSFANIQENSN
UniProt Q96HP4: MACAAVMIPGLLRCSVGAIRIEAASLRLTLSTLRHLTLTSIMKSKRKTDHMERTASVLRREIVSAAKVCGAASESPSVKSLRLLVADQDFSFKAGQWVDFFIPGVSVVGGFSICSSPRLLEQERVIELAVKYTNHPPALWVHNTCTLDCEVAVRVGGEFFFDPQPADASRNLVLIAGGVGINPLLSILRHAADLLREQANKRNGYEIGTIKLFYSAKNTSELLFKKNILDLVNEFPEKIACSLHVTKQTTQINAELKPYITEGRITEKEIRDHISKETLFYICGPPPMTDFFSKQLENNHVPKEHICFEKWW
UniProt Q9NVE7: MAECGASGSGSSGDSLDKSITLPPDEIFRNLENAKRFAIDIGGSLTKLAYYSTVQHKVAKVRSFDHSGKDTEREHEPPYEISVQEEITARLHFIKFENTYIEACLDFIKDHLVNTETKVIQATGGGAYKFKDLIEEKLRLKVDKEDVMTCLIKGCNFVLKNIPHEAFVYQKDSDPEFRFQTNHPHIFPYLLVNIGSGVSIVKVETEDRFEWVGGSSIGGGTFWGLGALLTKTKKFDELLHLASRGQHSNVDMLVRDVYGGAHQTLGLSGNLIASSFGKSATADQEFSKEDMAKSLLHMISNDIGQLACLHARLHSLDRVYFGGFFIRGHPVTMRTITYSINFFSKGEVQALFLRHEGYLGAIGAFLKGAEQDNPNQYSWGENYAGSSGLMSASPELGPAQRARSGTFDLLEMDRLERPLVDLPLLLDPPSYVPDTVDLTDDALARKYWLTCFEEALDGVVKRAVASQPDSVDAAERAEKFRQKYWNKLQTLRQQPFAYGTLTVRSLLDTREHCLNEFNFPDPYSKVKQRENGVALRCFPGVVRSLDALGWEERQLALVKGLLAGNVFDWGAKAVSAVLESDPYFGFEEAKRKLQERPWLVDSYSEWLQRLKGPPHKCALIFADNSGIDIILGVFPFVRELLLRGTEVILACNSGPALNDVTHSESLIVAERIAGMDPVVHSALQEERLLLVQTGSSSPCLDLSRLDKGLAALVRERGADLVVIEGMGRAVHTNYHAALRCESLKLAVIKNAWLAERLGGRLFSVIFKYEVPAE
UniProt O14841: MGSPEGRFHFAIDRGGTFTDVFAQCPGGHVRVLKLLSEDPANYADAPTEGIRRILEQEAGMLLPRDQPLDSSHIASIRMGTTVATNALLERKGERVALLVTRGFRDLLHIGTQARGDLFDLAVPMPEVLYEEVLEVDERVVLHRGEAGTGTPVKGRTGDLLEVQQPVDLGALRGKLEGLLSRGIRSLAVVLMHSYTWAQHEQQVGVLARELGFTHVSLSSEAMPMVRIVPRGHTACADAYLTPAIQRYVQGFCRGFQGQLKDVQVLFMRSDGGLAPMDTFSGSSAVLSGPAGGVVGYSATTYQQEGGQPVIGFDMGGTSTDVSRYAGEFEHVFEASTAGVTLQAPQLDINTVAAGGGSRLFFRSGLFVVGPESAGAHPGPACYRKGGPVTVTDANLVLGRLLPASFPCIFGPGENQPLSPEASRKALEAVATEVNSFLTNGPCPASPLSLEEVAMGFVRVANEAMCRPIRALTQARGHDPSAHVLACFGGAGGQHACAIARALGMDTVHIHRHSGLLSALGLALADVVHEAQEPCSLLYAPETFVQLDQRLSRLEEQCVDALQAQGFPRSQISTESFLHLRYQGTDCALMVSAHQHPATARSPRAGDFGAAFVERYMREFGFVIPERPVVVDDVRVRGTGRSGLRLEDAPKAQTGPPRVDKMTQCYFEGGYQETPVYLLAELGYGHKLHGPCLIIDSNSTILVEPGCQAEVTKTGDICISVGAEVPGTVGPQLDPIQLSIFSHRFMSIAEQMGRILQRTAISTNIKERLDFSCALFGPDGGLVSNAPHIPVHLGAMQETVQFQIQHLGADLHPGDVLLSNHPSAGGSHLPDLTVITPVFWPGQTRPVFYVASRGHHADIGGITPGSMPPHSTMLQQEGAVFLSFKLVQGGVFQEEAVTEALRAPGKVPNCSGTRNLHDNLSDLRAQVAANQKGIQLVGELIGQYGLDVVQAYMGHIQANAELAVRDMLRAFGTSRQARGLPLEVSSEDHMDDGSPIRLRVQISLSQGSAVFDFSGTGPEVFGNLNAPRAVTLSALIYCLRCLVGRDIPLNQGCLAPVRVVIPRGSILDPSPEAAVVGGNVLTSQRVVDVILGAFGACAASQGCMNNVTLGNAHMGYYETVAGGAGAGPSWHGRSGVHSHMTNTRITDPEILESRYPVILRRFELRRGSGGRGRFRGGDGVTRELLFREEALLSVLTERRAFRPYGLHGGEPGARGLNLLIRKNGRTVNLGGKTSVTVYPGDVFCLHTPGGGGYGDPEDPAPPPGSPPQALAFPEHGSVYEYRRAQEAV
UniProt Q6QHF9: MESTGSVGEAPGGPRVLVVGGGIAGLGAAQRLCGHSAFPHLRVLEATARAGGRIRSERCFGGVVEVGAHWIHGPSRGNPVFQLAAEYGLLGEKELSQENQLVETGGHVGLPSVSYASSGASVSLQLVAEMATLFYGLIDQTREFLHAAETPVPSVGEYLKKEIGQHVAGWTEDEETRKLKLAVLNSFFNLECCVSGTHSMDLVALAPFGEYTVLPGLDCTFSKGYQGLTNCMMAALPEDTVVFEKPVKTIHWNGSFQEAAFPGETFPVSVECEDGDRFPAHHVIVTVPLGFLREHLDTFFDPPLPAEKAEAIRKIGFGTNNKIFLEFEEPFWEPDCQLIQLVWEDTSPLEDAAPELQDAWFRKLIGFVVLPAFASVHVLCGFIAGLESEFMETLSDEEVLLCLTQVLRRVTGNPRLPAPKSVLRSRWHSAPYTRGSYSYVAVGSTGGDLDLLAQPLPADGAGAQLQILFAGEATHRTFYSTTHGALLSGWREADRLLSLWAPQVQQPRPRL
UniProt Q9BY11: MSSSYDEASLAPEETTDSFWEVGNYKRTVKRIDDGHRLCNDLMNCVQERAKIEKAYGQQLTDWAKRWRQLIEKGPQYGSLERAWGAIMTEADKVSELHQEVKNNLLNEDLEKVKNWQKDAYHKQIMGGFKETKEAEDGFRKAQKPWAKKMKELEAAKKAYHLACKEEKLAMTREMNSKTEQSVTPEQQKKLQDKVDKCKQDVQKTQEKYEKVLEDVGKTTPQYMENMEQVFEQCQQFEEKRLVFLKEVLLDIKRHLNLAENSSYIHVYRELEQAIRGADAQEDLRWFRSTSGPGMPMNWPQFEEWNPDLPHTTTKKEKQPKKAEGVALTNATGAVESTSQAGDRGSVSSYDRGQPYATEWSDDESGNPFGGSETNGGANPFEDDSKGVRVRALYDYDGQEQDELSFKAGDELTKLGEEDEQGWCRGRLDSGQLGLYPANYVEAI
UniProt Q9H8K7: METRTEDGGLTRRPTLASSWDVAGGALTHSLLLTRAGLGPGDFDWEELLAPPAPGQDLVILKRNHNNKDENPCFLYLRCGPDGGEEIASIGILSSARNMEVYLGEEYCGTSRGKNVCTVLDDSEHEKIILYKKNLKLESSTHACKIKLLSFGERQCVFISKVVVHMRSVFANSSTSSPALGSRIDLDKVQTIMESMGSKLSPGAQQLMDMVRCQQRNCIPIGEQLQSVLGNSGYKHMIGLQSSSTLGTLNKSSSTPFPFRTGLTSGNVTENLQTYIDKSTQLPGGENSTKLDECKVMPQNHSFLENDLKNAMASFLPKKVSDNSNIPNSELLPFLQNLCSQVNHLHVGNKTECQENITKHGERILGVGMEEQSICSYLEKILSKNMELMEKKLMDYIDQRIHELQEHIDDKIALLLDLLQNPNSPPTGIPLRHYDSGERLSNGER

What was measured:
Assay in all cases: log2 fold change, soluble protein after heating vs DMSO (PISA); higher = thermal stabilisation; K562 lysate, 10 uM; active = over 0.2 and 3.5 SD of the protein, either way, in both replicates (recomputed)
[1] = compound: C1=CC=C(C=C1)[C@H](COC2=CC3=C(C=C2)NC(=O)N3)NC(=O)C4=CC=CN(C4=O)CC5=CC(=C(C=C5)F)F
In short: (§1)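 Dounce homogenisation of K562 pellets in PBS pH 7.4 with 1 mM MgCl2 produced a crude extract, used at 1 mg/mL protein. Exposure to 10 μM compound lasted 30 min, and aliquots were then heated for 3 min across 48°C-58°C, pooled and brought to 0.5% NP-40 at 4°C. The supernatant after 21,000xg for 90 min was quantified by TMTpro 16plex LC-MS/MS with channel sums equalised. Duplicate values are given as log-two fold change in thermal stability relative to solvent controls.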

[2] = compound: CC1=C(SC2=C1C(=N[C@H](C3=NN=C(N32)C)CC(=O)N)C4=CC=C(C=C4)Cl)C
In short: as §1

[3] = compound: CC1=C2C(=CC=C1)N=C(N(C2=O)C3=CC=CC=C3C)CN4C=NC5=C(N=CN=C54)N
In short: as §1

[4] = compound: Cc1sc2c(c1C)C(c1ccc(Cl)cc1)=N[C@@H](CC(=O)OC(C)(C)C)c1nnc(C)n1-2
In short: as §1

[5] = compound: c1ccc([C@@H]2C[C@H]2NC2CCNCC2)cc1
In short: as §1

Measured: log2 fold change

OSBPL9 (UniProt E9PLH0)
inactive: [1] 0.178 | [2] 0.107

NUSAP1 (UniProt Q9BXS6)
inactive: [1] 0.039 | [2] 0.018 | [3] -0.001 | [4] 0.026 | [5] -0.223

OS9 (UniProt Q13438)
inactive: [1] -0.018 | [2] -0.004 | [3] 0.016 | [4] -0.026 | [5] -0.025

OCIAD1 (UniProt D6RF01)
inactive: [1] 0.106 | [2] -0.095

OSTM1 (UniProt Q86WC4)
inactive: [1] -0.057 | [2] 0.019 | [3] 0.108 | [4] -0.014 | [5] -0.027

OXNAD1 (UniProt Q96HP4)
inactive: [1] -0.066 | [2] -0.063 | [3] 0.005 | [4] 0.035 | [5] -0.008

PANK4 (UniProt Q9NVE7)
inactive: [1] -0.009 | [2] -0.025 | [3] 0.026 | [4] 0.003 | [5] -0.013

OPLAH (UniProt O14841)
inactive: [1] -0.02 | [2] -0.025 | [3] -0.01 | [4] 0.086 | [5] 0.031

2 entries drawn at random from the list so far:
OXNAD1 (UniProt Q96HP4)
inactive: [1] -0.066 | [2] -0.063 | [3] 0.005 | [4] 0.035 | [5] -0.008

OCIAD1 (UniProt D6RF01)
inactive: [1] 0.106 | [2] -0.095

Next part

PAOX (UniProt Q6QHF9)
inactive: [1] 0.18 | [2] 0.046

PACSIN1 (UniProt Q9BY11)
inactive: [1] -0.013 | [2] -0.069 | [3] 0.021 | [4] -0.012 | [5] -0.047

PAAT (UniProt Q9H8K7)
inactive: [1] 0.112 | [2] 0.017 | [3] 0.056 | [4] -0.01 | [5] -0.028
